Measured values from US20100184812A1, “MUTUAL PRODRUGS AND METHODS TO TREAT CANCER” (UNIVERSITY OF MARYLAND, BALTIMORE, priority 2007, published 2010).
Some results were stated once for a whole list of compounds, not compound by compound. At least one compound was matched to its structure with a doubt left.

Experiment: Kinetics of hydrolysis in plasma (HPLC)
Conditions: fresh mouse plasma, 37° C.

time to complete cleavage to parent compounds	Compound
≤ 1 h	CCCC(=O)OCc1ccc(OC(=O)/C=C(C)/C=C/C=C(C)/C=C/C2=C(C)CCCC2(C)C)cc1 [VNLG/124, 4-(Butanoyloxymethyl)phenyl(2E,4E,6E,8E)-3,7-dimethyl-9-(2,6,6-trimethylcyclohex-1-enyl)nona-2,4,6,8-tetraenoate]
≤ 1 h	CC1=C(/C=C/C(C)=C/C=C/C(C)=C/C(=O)Oc2ccc(COC(=O)Nc3ccccc3NC(=O)c3ccc(NCC(=O)OCc4cccnc4)cc3)cc2)C(C)(C)CCC1 [VNLG/114, 4-{[N-(2-{[4-({[(3-Pyridylmethyl)oxycarbonyl]methyl}amino)phenyl]carbonylamino}phenyl)carbamoyloxy]methyl}phenyl(2E,4E,6E,8E)-3,7-dimethyl-9-(2,6,6-trimethylcyclohex-1-enyl)nona-2,4,6,8-tetraenoate]
≤ 1 h	CC(=O)Nc1ccc(C(=O)Nc2ccccc2NC(=O)OCc2ccc(OC(=O)/C=C(C)/C=C/C=C(C)/C=C/C3=C(C)CCCC3(C)C)cc2)cc1 [VNLG/122, 4-{[N-2-{[4-(Acetylamino)phenyl]carbonylamino}phenyl0carbamoyloxy]methyl}phenyl(2E,4E,6E,8E) -3,7-dimethyl-9-(2,6,6-trimethylcyclohex-1-enyl)nona-2,4,6,8-tetraenoate]
≤ 1 h	CC(=O)Nc1ccc(C(=O)Nc2ccccc2NC(=O)CNC(=O)OCOC(=O)/C=C(C)/C=C/C=C(C)/C=C/C2=C(C)CCCC2(C)C)cc1 [VNLG/60, (N-{[N-(2-{[4-(Acetylamino)phenyl]carbonylamino}phenyl)carbamoyl]methyl}carbamoyloxy)methyl(2E,4E,6E,8E)-3,7-dimethyl-9-(2,6,6-trimethylcyclohex-1-enyl)nona-2,4,6,8-tetraenoate]
